Measurements from article PMC7793253, “CEP290 is essential for the initiation of ciliary transition zone assembly” (PLoS Biology, 2020).
These are yes or no findings as the source states them, for the method shown. For part of these data: Binding seen in cells or lysates may run through a third protein. Some results given as binding are weak or reduced against the parent protein; the word gives no strength. For part of these data: Where a sequence is shown, tags or fusion partners need not be part of it. Each block holds one molecule with its values, some of them ahead of it.

Amino acid sequences for entries named in this document (tags omitted).
UniProt O18338: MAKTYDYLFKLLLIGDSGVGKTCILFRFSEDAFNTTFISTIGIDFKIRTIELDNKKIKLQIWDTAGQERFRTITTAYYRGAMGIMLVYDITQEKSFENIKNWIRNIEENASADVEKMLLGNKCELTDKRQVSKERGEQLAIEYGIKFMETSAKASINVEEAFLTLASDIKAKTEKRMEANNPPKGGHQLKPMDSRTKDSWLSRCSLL

Columns and labels:
DZIP1-GFP (Drosophila) = molecular target: T1, DZIP1-GFP (Drosophila) (UniProt Q9VC70); test: co-IP; Drosophila S2 cells transiently transfected, 48 h; lysis in 10 mM Tris pH 7.5, 150 mM NaCl, 0.5 mM EDTA, 0.5% NP-40; anti-GFP nanobody agarose (GFP-trap) beads, 1 h at 4°C; blot with anti-GFP and anti-HA
T1 sequence: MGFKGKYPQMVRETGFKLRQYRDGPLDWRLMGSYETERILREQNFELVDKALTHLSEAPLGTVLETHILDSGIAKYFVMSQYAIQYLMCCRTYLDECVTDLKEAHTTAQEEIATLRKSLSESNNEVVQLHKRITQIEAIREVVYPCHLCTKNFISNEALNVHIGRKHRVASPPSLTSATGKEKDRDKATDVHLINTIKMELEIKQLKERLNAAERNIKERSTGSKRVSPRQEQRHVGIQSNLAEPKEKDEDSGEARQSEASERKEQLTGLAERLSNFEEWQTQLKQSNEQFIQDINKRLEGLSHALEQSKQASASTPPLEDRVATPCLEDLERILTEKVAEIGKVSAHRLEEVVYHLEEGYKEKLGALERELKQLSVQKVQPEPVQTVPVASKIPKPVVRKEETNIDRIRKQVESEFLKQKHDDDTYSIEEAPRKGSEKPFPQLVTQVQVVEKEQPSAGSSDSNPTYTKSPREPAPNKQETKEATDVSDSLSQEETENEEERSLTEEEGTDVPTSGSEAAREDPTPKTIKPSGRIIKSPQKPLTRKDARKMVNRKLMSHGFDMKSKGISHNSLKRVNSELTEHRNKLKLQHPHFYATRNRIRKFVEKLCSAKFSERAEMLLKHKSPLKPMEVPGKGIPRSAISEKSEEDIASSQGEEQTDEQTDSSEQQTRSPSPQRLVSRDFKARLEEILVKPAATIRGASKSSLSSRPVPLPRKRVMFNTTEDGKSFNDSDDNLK

[1] = molecular target: T2, DAZ interacting zinc finger protein 1 (DZIP1), yeast two-hybrid bait in pGBKT7 (Drosophila) (UniProt Q9VC70); test: two-hybrid; DZIP1 in pGBKT7, CEP290 fragments in pGADT7, yeast strain AH109; colonies from SD-Leu-Trp tested on SD-Ade-Leu-Trp-His plates, 5 d at 30°C
T2 sequence: T1 sequence

binding (DZIP1-GFP (Drosophila)): binds
Molecule: Rab8-HA (from UniProt O18338 1-207)

binding [1]: binds
B1: CEP290-N (aa 1–887), yeast two-hybrid prey in pGADT7 (domain or fragment, UniProt Q9W0M1 1-887)
chain: MSMDIPETVSLRKFRDFSARQKQELYETLLELAESIDELPKKSLRKTLELTLAVLEYKGEQVQQLQESAAGGLSSDRRLQDENEKLKRMLQKLEDERDGLKSKAKELGEEIRQLELRLQEAAQQAEISDKDSSDPLSELDKQEQLLQNIDSKNKHIKRLLKEIETLQNQNIAQSKTIVLHERELQTIKANLVQLSQDITKVEQERKSLKQKEQQQALEITRLEGNLTFLEVEREKQEVEMRQFLDKYEAKSLGWRQALDDRDKEVERLKKQLEGKSISSGQTNSSNSQSQQEEEHAKLRQLLESREQRIEKLEEKIKSMAEEMVSSTRAMNQLCQEKERAHDPEQPRACCQMIEERLREATARCQQLSEMLEAAEQDNVLKSQQALHAISALEAYKRDEDGLIPALRRCSGLEQKVAARDKQLRAYIQELNSLHEVVQENELLRRKLHIPDDVVIMAKNVHSKQRNKDKQIERLTLKLRTSEELRLQLKLEKSELRRKLLELQQDSPQTLNESLQAPSEVGEVPHSVHLENSPRRGQGDGAASSEMQNRYDEVLAENETLRSGMYEILEKLREYDATSEHITIDSDLLRRLIEALPGGTTTPQRLQGQLLELKAREEALRQLLEQQNYSDSETGELSSVHSLCEVPEIAEEHPVEEDAVLNTATRPSSPTEATMGLRRPTVPDPEEKPTNEALAELSILRKHYDELRLHMSADGSDLMNRNQELHDQMIALELQLEQQRNSYSYMRRDYDQLLTETRKQELRFIDDKASLARQLEHSKSELCEAREELEQVNRRNLYTAEEQQKLEHRNAILSMQLGQAMEQLLGELKPTEICAEYGIIRENYQLDYITAQDFEEQQQELLTWRSKQAELQRETKQLEGLLHVANEQ

binding [1]: no binding
B2: CEP290-ΔN (aa 888–1978), yeast two-hybrid prey in pGADT7 (domain or fragment, UniProt Q9W0M1 888-1978)
chain: IHSQQRLLNEITDNHINLRHLVADLQSSSDEKLMLAKVQRDLDSVKAECSRLETEREKLQLKADCLQTQLEASELSLKQTQQDFQQERTNSDIKHKFLQHSLFMLKDKYAKFTPLVFLTNFVFAYQKFQRRLEEEQVQQRHRDHTALIDEVTAVVQAKIGLNEESSQQLVKLIKSETQTRLLEQRCEILQAKQEELVRELGELRMSQATDTEHWSTIQALFGEGEPRSQLKVDAETNTDAVAPNLAMRRAVQLIDRESSPIGSPLRKHPHLDTATQTLEAQVEFSETAVQTNGILSQQNQAVQTADAVEDNRRDSRAELQKMQETLQEANQRIEILGKQLEASRSESRESASPQGGVVEKTILSFHTLLLEKDQSIQKYQDLLQTERDQSQQALSKQVAENESLRATVNNLNFNIKTKDAEIQGLKEKLRQKPEVPVERNPSTDSRSSSSSDSSVNELTDEKIEELFESSSVERPPQEELEVPVEAGPENIVTEEPEGEEEKQDTEELKEVPTLHKQIKDLKDKLEYSERSLKTREEEVDILKEKLKLCQEREKSVESTVNPELDQLRIFLDEKDKHIKDLMDTLKNFHDDQQRYIKDTSNFSEDQIAKLAADLNRTEATNKIYHTQMEALRRQLANVTQREKQARDLSQSLRQQLLKRPVVSIKTELNARVKNENQLKRIQQLELDLDEARGQLQRQQTLLEAKRTRSANEVQLWEKQKRYQQQAEKTKARLEETELALEKTRALLQAARTTIARLEKDKQILESKLGRNGPPSNSSGGNNLKCCRTPSCPNLQHVGVSKFAPSPSESPETYTGPSSECSSPAHHHTQIFDQSQLDLIEALKSRIELQQRKIIAMELEGRGSNALTTELEKLQERCQAIEAQNIRLEARNLQLQLDSDLLRQGDSSDRLQKRIKHLEDYIMALKEEMARNESRRELGSGLKVSTNQGQSAEQTILSLRNLVEKLRSENKFLKDGRRSTESRSSMDSTPAEAARLQQQHAEALEKISALQQELQKRTTKCSQCGGRSKDAANEELKFIKEQLVKKTQLLQKAKVLLTRAAAKEKVLREQLALWKRKCSELQNVPVIDEISE
